Assay results from PMC6061166.
These are yes or no findings as the source states them, for the method shown. In cells and extracts the contact can be indirect. Some entries that bind do so weakly or less than the wild type.

Protein sequences, listed by entry. Tags and fused reporters are not part of them. Lines headed by an entry give the natural chain unless they say otherwise; changes in a name come on top.
UniProt P61169: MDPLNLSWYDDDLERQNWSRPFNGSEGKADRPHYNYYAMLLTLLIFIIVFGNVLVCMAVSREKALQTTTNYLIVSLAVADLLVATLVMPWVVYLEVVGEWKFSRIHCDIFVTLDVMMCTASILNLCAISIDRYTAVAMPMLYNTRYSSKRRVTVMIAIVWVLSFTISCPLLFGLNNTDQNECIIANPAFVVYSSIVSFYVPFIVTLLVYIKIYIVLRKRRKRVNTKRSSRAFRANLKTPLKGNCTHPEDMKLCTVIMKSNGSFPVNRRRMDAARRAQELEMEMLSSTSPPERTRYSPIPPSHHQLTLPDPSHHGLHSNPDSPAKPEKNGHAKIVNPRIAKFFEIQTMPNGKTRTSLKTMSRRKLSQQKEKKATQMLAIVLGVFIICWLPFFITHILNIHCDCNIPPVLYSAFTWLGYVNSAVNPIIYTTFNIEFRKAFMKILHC
UniProt P14416: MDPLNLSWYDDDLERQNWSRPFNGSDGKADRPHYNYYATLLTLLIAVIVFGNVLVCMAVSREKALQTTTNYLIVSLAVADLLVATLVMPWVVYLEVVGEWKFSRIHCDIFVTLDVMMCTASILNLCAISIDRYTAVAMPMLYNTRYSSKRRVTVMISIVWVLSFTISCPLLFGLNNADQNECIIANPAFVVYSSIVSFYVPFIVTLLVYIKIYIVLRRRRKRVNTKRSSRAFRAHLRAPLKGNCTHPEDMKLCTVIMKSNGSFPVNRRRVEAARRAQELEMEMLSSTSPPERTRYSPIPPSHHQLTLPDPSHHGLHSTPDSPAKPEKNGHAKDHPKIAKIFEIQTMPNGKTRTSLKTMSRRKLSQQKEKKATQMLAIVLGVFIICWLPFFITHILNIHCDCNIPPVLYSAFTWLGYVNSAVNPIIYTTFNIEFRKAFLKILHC

Tests used:
[1] = target: dopamine D2 receptor, endogenous in rat striatum (rat (endogenous in Sprague-Dawley rat brain)) (UniProt P61169); assay: proximity ligation; in situ PLA on free-floating formalin-fixed rat brain sections (30 um, Bregma 1.0 mm) with anti-D2R and anti-A2AR primary antibodies; rats after cocaine self-administration with CGS 21680, intra-accumbal vehicle or synthTM5 peptide; nucleus accumbens core and shell, caudate putamen
[2] = target: dopamine D2 receptor, endogenous in rat striatum (rat (endogenous in Sprague-Dawley rat brain)) (UniProt P61169); assay: proximity ligation; in situ PLA of A2AR-D2R on rat brain sections after microinjection of synthTM5 peptide (0.1 uM, 0.5 ul each side, 22 h and 20 min before the last session) into the nucleus accumbens; only the binder purified
[3] = target: dopamine D2 receptor fused to Renilla luciferase (D2R^Rluc) (human) (UniProt P14416); assay: FRET or BRET; BRET^1 competition in HEK293T cells co-expressing D2R^Rluc and A2AR^YFP; synthetic TM peptide added at rising concentrations for 2 h at 37 °C before reading; only the binder purified

binding [1]	binding [2]	binding [3]	Molecule
binds			adenosine A2A receptor, endogenous in rat striatum (from UniProt P30543 1-410)
	binds	binds	KKKMNYMVYYNFFAFVLLPLLLMLAIYLKKK [rat A2AR synthetic TM5 peptide (synthTM5)]
